Experimental data: PubChem BioAssay AID720505 (Drosophila RNAi Screening Center, 2013)
In all, the deposit lists about 20,000 reagents; below is an unselected part of those that have a named target and a result. In the full data, about 2,100 (10%) got an active call. 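Raw plate signals without normalisation; calls rest on control-based scores that were not deposited; replicate 2 separates called from uncalled poorly.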 The numbers tell different reagents against one gene apart. Names joined by + are all predicted targets of the reagent. Not stated in the record: the amount of reagent, the time to read-out.

Screen: 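Genes needed for store-operated calcium entry in fly cells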 (primary screen)
Cells: Drosophila S2R+ cells
Reagents: long dsRNA against Drosophila genes
Treatment: thapsigargin (2 µM) in calcium-free buffer to empty internal stores, then 2 mM calcium added back
Measurement: 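Fluo-4 signal in 384-well plates read on a FLIPR after thapsigargin (2 µM, calcium-free) store depletion and 2 mM calcium add-back; unnormalised mean endpoint per well; screen run twice, selected wells retested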
Reading the numbers: calcium signal: higher = more calcium entry after store depletion
Hit rule: 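About 1500 genes called as lowering calcium entry, by varying amounts, judged against per-plate control wells with STIM1 as positive and Rho1 as negative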
Calls: active = called as lowering calcium entry; inactive = not called

Against h-cup the deposit lists calcium signal, replicate 1 = 106; calcium signal, replicate 2 = 116; inactive. Silencing of mRpL33 resulted in: calcium signal, replicate 1 = 273; calcium signal, replicate 2 = 109; inactive. PAPLA1 #1 scored calcium signal, replicate 1 = 117; calcium signal, replicate 2 = 186; inactive. PAPLA1 #2 scored calcium signal, replicate 1 = 143; calcium signal, replicate 2 = 151; inactive. For snRNP-U1-C, the values are calcium signal, replicate 1 = 161; calcium signal, replicate 2 = 115; inactive. Scox scored calcium signal, replicate 1 = 136; calcium signal, replicate 2 = 103; inactive.

With knock-down of Cpr11A, the screen gave calcium signal, replicate 1 = 92.8; calcium signal, replicate 2 = 89.9; inactive. After knock-down of yellow-e2 the results were calcium signal, replicate 1 = 83.4; calcium signal, replicate 2 = 134; inactive. For Brd8, the entry reads calcium signal, replicate 1 = 107; calcium signal, replicate 2 = 104; inactive. Against CG31704, the values are calcium signal, replicate 1 = 58.3; calcium signal, replicate 2 = 120; active. Against CG12498, the values are calcium signal, replicate 1 = 109; calcium signal, replicate 2 = 141; inactive. CG14367 gave calcium signal, replicate 1 = 139; calcium signal, replicate 2 = 198; inactive.

PIG-Wa gave calcium signal, replicate 1 = 197; calcium signal, replicate 2 = 188; inactive. For CG12773, the entry reads calcium signal, replicate 1 = 130; calcium signal, replicate 2 = 154; inactive. dj gave calcium signal, replicate 1 = 128; calcium signal, replicate 2 = 246; inactive. CG3955 gave calcium signal, replicate 1 = 108; calcium signal, replicate 2 = 86.4; inactive. CG42662 + CG30080 showed calcium signal, replicate 1 = 114; calcium signal, replicate 2 = 122; inactive. Against Glys, the entry reads calcium signal, replicate 1 = 97.4; calcium signal, replicate 2 = 130; inactive.

Against ldbr, the entry reads calcium signal, replicate 1 = 91; calcium signal, replicate 2 = 112; inactive. After knock-down of PMP34 the results were calcium signal, replicate 1 = 109; calcium signal, replicate 2 = 203; inactive. Against Cpr76Bc, the values are calcium signal, replicate 1 = 101; calcium signal, replicate 2 = 181; inactive. Silencing of CG30099 resulted in: calcium signal, replicate 1 = 142; calcium signal, replicate 2 = 191; inactive. Silencing of CG5440 came out at: calcium signal, replicate 1 = 208; calcium signal, replicate 2 = 205; inactive. Against Gfrl #1, the values are calcium signal, replicate 1 = 180; calcium signal, replicate 2 = 95.5; inactive.

With knock-down of Gfrl #2, the screen gave calcium signal, replicate 1 = 118; calcium signal, replicate 2 = 245; inactive. Silencing of Gfrl #3 resulted in: calcium signal, replicate 1 = 206; calcium signal, replicate 2 = 169; inactive. Against Gfrl #4 the deposit lists calcium signal, replicate 1 = 151; calcium signal, replicate 2 = 205; inactive. After knock-down of Gfrl #5, the record shows calcium signal, replicate 1 = 132; calcium signal, replicate 2 = 114; inactive.

Entries above called active (1):
CG31704 — calcium signal, replicate 1: 58.3; calcium signal, replicate 2: 120; Outcome: active
